Laboratory results taken from the supplement of paper PMC12462457.
Where a name gives a salt, the structure may show the parent alone. ± gives the standard deviation of the averaged measurements. The list shows a part of the results. Single values are uncertain here, since repeats match poorly.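 Cell counts came from imaging DAPI-stained nuclei, excluding as dead any cells lacking phalloidin-stained cytoplasm. Counts per well were normalized to the median vehicle-well count on that plate, and the values were averaged over two replicate plates.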

Test system: OVCAR8
Experiment: cell count relative to DMSO vehicle (fold change); higher = more surviving senescent cells (less killing)
Details: senescence inducer: cisplatin 10 µM 48 h, then 6 d recovery (CP senescent), exposure time 24 h

SMILES	cell count (compound dose 1 µM)	cell count (compound dose 5 µM)
COc1cc(O)c(C(=O)/C=C/c2ccc(O)cc2)c(OC)c1 [Flavokawain C]	0.963 ± 0.18	1.08 ± 0.13
CCn1cc(-c2ccc3c(c2)CCN3C(=O)Cc2cccc(OC(F)(F)F)c2)c2c(N)ncnc21	0.996 ± 0.12	1.03 ± 0.1
CNC(=O)c1cc(Oc2ccc(NC(=O)Nc3ccc(Cl)c(C(F)(F)F)c3)cc2)ccn1 [Sorafenib Tosylate]	1.2 ± 0.035	0.798 ± 0.47
CNC(=O)c1cc(Oc2ccc(NC(=O)Nc3ccc(Cl)c(C(F)(F)F)c3)cc2)ccn1 [Sorafenib]	1.2 ± 0.27	1.22 ± 0.13
CNC(=O)c1ccccc1Nc1cc(Nc2ccc(N3CCOCC3)cc2OC)ncc1C(F)(F)F	0.984 ± 0.18	0.879 ± 0.29
COc1cccc2c1C(=O)c1c(O)c3c(c(O)c1C2=O)C[C@@](O)(C(C)=O)C[C@@H]3O[C@H]1C[C@H](N)[C@H](O)[C@H](C)O1 [Daunorubicin (hydrochloride)]	0.627 ± 0.014	0.336 ± 0.2
N#Cc1cc(N2CCC(C(=O)N3N=CC[C@H]3c3cc(F)cc(F)c3)CC2)ncn1	0.819 ± 0.021	0.835 ± 0.086
Cc1ccc(S(=O)(=O)Cc2nc(-c3ccc(C(=O)NCc4cccnc4)cc3)oc2C)cc1	1.33 ± 0.078	0.961 ± 0.19
COc1ccc(C(CC(=O)N2CCCC2)c2c(OC)cc(OC)c3c(-c4ccccc4)cc(=O)oc23)cc1 (stereo not given)	1.22 ± 0.044	1.09 ± 0.13
Cc1cn([C@H]2C=C[C@@H](CO)O2)c(=O)[nH]c1=O [Stavudine]	1.31 ± 0.072	0.882 ± 0.088
Cc1ccc2nc(CN(CCN(Cc3nc4ccc(C)cc4[nH]3)Cc3nc4ccc(C)cc4[nH]3)Cc3nc4ccc(C)cc4[nH]3)[nH]c2c1	1.02 ± 0.1	1.11 ± 0.1
CCc1ccc(-c2nc(CSCC(=O)NCCc3ccccc3)c(C)o2)cc1	0.838 ± 0.1	0.594 ± 0.078
N#CCNC(=O)c1ccc(-c2ccnc(Nc3ccc(N4CCOCC4)cc3)n2)cc1 [Momelotinib]	0.88 ± 0.066	0.914 ± 0.026
CS(=O)(=O)OCCCCOS(C)(=O)=O	0.367 ± 0.1	0.457 ± 0.0064
CC1(C)CCC(c2ccc(Cl)cc2)=C(CN2CCN(c3ccc(C(=O)NS(=O)(=O)c4ccc(N[C@H](CCN5CCNCC5)CSc5ccccc5)c(S(=O)(=O)C(F)(F)F)c4)cc3)CC2)C1 [Navitoclax-piperazine]	0.404 ± 0.026	0.145 ± 0.063
O=C(/C=C/c1ccc(O)cc1)c1ccc(O)cc1O [Isoliquiritigenin]	1.22 ± 0.042	1.1 ± 0.16
Oc1c(C(Nc2ccccn2)c2cccs2)ccc2cccnc12 (stereo not given)	1.35 ± 0.15	1.32 ± 0.082
Oc1ccc(C(c2c[nH]c3ccccc23)c2c[nH]c3ccccc23)cc1	0.803 ± 0.0014	0.749 ± 0.015
CN1CCc2c(c3ccccc3n2Cc2ccc(C(=O)NO)cc2)C1 [Tubastatin A HCl]	0.882 ± 0.025	0.973 ± 0.025
CN1CCc2c(c3ccccc3n2Cc2ccc(C(=O)NO)cc2)C1 [Tubastatin A]	1.14 ± 0.05	0.989 ± 0.037
O=C1/C(=C/C=C/c2ccco2)SC(=S)N1NS(=O)(=O)c1ccccc1	0.979 ± 0.41	0.644 ± 0.099
Cc1c(CN2CCN(C(=O)[C@H](C)O)CC2)sc2c(N3CCOCC3)nc(-c3cnc(N)nc3)nc12 [Apitolisib]	1.17	0.69 ± 0.34
COc1nc(OCc2cccc(-c3ccccc3)c2C)ccc1CNCCNC(C)=O	1.17 ± 0.1	0.96 ± 0.057

SMILES	cell count (compound dose 1 µM)	cell count (compound dose 5 µM)
Cn1c(-c2ccccc2C(F)(F)F)nnc1C12CCC(c3noc(C4CC(F)(F)C4)n3)(CC1)CC2	1.45 ± 0.067	1.37 ± 0.17
C=C1C(=O)[C@@]23[C@H](O)C[C@@H]4C(C)(C)C(=O)CC[C@@]4(C)[C@@H]2CC[C@@H]1[C@H]3O [Glaucocalyxin A]	0.75 ± 0.15	0.104 ± 0.088
Cc1cc(CN2CCN(c3c(Br)cnc4nc(-c5ccc(N6CCN(C)CC6)cc5)[nH]c34)CC2)no1	1.09 ± 0.044	0.409 ± 0.1
N#Cc1cc2cc(CN3CCC(Nc4ncnc5sc(CC(F)(F)F)cc45)CC3)ccc2[nH]1	1.2 ± 0.19	0.837 ± 0.13
Cc1cccc(CC(=O)N2CCc3c2ccc(-c2cn(C)c4ncnc(N)c24)c3F)n1	0.95 ± 0.091	0.996 ± 0.023
O=c1c(O[C@@H]2O[C@H](CO)[C@H](O)[C@H](O)[C@H]2O)c(-c2ccc(O)c(O)c2)oc2cc(O)cc(O)c12 [Hyperoside]	1.02 ± 0.13	0.939 ± 0.19
CCn1c2ccccc2c2cc(CNCc3ccccc3OC)ccc21	0.983 ± 0.14	1.04 ± 0.12
COCCOc1cc2nccc(Nc3n[nH]c(C)c3C)c2cc1S(=O)(=O)C(C)(C)C [RIP2 kinase inhibitor 2]	1.23 ± 0.22	0.9 ± 0.035
CC[C@@H](C)Nc1cc(C(=O)N[C@H]2C[C@H]3CC[C@@H](C2)N3c2ccc(C(=O)C3CC3)cn2)c(C)cc1C(N)=O	0.432 ± 0.034	0.469 ± 0.096
Cc1ccc(NC(=O)c2cccc(C(C)(C)C#N)c2)cc1Nc1ccc2ncn(C)c(=O)c2c1	0.781 ± 0.044	0.928 ± 0.07
OCCN(CCO)c1nc(N2CCCCC2)c2nc(N(CCO)CCO)nc(N3CCCCC3)c2n1	0.974 ± 0.23	0.891 ± 0.054
COc1cccc(Nc2nc(NCC3CCCO3)c3ccccc3n2)c1 (stereo not given)	1.24 ± 0.16	0.749 ± 0.22
Clc1ccc(C(c2c[nH]c3ccccc23)c2c[nH]c3ccccc23)cc1	1.16 ± 0.12	1.14 ± 0.11
CC(=O)N(Cc1ccc(F)cc1)C1=C(NCc2ccccc2)C(=O)c2ccccc2C1=O	1.02 ± 0.16	1.07 ± 0.16
Cc1ccc(F)c(NC(=O)Nc2ccc(-c3cccc4[nH]nc(N)c34)cc2)c1 [Linifanib (ABT-869)]	1.22 ± 0.24	0.908 ± 0.012
O=C(O)c1ccccc1O	1.29 ± 0.15	1.29 ± 0.098
CCN1CCN(C(c2ccc(C(F)(F)F)cc2)c2ccc3cccnc3c2O)CC1 (stereo not given)	1.19 ± 0.18	1.093 ± 0.005
Cc1c(-c2c(-c3ccc(F)o3)sc3ncnc(O[C@H](Cc4ccccc4OCc4ccnn4CC(F)(F)F)C(=O)O)c23)ccc(OCCN2CCN(C)CC2)c1Cl	0.883	0.957 ± 0.014
O=C(O)c1cc(/N=N/c2ccc(S(=O)(=O)Nc3ccccn3)cc2)ccc1O	1.15 ± 0.05	0.809 ± 0.13
COc1ccc(C2=N[C@@H](c3ccc(Cl)cc3)[C@@H](c3ccc(Cl)cc3)N2C(=O)N2CCNC(=O)C2)c(OC(C)C)c1 [Nutlin-3a]	1.08 ± 0.24	0.694 ± 0.099
CNC(=O)c1ccc2c(c1)ncn2-c1ccc(CC(=O)OC(C)(C)C)cc1	1.02 ± 0.085	0.906 ± 0.016
NC(=O)c1ccc(-c2nc(-c3ccccn3)c(-c3ccc4c(c3)OCO4)[nH]2)cc1	0.819 ± 0.012	0.474 ± 0.18

Record cards, as listed above:
COCCOc1cc2nccc(Nc3n[nH]c(C)c3C)c2cc1S(=O)(=O)C(C)(C)C [RIP2 kinase inhibitor 2] is listed with cell count (compound dose 1 µM): 1.23 ± 0.22; cell count (compound dose 5 µM): 0.9 ± 0.035
Cc1c(-c2c(-c3ccc(F)o3)sc3ncnc(O[C@H](Cc4ccccc4OCc4ccnn4CC(F)(F)F)C(=O)O)c23)ccc(OCCN2CCN(C)CC2)c1Cl is listed with cell count (compound dose 1 µM): 0.883; cell count (compound dose 5 µM): 0.957 ± 0.014
O=c1c(O[C@@H]2O[C@H](CO)[C@H](O)[C@H](O)[C@H]2O)c(-c2ccc(O)c(O)c2)oc2cc(O)cc(O)c12 [Hyperoside] is listed with cell count (compound dose 1 µM): 1.02 ± 0.13; cell count (compound dose 5 µM): 0.939 ± 0.19
O=C(O)c1cc(/N=N/c2ccc(S(=O)(=O)Nc3ccccn3)cc2)ccc1O is listed with cell count (compound dose 1 µM): 1.15 ± 0.05; cell count (compound dose 5 µM): 0.809 ± 0.13
